Consider 1 substance from article PMC9598788.

Protein sequences, listed by entry. Tags and fused reporters are not part of them. Lines headed by an entry give the natural chain unless they say otherwise; changes in a name come on top.
UniProt O22229: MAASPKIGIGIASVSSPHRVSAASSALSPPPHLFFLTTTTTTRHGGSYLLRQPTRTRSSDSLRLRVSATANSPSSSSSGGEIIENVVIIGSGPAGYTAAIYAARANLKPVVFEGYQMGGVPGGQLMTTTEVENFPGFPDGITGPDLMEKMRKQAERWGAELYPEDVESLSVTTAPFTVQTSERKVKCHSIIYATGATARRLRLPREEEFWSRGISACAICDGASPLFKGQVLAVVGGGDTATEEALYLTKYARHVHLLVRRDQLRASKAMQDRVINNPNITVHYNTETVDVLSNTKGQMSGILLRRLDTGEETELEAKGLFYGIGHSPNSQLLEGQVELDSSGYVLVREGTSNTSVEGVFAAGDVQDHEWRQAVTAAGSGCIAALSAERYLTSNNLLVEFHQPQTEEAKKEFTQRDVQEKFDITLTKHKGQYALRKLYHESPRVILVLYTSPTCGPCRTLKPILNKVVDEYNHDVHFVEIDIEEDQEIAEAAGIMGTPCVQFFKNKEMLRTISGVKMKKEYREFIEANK

The target in this assay is NTRC-C457S (Arabidopsis thaliana (from the prefix At)) (UniProt O22229). As to the kind of experiment: affinity purification with mass spectrometry; His-tagged monocysteinic Trx mutant overexpressed in N. benthamiana leaves (agroinfiltration, 5 days); leaf extract (20 mM sodium phosphate pH 7.4, 150 mM NaCl, 25 mM imidazole, 0.1% Triton X-100) on Ni-NTA agarose; washed with 45 mM imidazole; targets held by a mixed disulfide eluted with 20 mM DTT; LC-MS/MS; hits with Log2(fold change) > 1.8 against empty-vector plants.

Results are given in words; binding and its absence hold for the method and conditions named. Binding seen in cells or lysates may run through a third protein. Here binding means that the protein was enriched with, or labelled near, the bait; the list need not be complete.

For “Chlorophyll a-b binding protein (Q0PWS7) (from UniProt Q0PWS7)”, the binding result is on record as “binds”.
